Experimental data from publication PMC5465499.
Results are given in words; binding and its absence hold for the method and conditions named. Binding seen in cells or lysates may run through a third protein. Some results given as binding are weak or reduced against the parent protein; the word gives no strength.

Amino acid sequences for entries named in this document (tags omitted). A change or cut given only in a name is not applied to a line headed by its entry. Chains listed by the source or under a name are the forms on record and can include a tag or linker. Residues count along the entry.
UniProt Q9EP80: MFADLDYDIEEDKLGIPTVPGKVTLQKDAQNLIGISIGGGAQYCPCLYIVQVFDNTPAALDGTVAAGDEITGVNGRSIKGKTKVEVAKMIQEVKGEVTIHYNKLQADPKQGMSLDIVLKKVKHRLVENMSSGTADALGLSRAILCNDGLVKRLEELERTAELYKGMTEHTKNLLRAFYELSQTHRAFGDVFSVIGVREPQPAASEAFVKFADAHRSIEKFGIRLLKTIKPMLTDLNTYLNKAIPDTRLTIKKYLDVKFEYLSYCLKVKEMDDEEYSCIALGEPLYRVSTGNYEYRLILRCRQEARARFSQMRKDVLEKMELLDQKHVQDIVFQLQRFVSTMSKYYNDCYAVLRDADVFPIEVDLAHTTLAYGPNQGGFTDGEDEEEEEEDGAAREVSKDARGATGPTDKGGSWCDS
FLAG-PICK1 Δ380–390 (Q9EP80, form named): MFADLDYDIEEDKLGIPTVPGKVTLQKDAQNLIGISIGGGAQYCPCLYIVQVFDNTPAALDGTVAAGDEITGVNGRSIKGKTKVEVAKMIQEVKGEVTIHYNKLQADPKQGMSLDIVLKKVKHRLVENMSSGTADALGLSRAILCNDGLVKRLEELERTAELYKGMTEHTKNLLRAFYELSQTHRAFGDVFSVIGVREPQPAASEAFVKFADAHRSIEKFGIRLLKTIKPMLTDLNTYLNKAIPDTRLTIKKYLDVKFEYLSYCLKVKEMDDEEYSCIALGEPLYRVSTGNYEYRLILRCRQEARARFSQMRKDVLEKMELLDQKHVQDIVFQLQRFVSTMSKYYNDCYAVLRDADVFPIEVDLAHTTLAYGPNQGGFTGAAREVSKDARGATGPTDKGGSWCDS
UniProt P19491, residues 22-883: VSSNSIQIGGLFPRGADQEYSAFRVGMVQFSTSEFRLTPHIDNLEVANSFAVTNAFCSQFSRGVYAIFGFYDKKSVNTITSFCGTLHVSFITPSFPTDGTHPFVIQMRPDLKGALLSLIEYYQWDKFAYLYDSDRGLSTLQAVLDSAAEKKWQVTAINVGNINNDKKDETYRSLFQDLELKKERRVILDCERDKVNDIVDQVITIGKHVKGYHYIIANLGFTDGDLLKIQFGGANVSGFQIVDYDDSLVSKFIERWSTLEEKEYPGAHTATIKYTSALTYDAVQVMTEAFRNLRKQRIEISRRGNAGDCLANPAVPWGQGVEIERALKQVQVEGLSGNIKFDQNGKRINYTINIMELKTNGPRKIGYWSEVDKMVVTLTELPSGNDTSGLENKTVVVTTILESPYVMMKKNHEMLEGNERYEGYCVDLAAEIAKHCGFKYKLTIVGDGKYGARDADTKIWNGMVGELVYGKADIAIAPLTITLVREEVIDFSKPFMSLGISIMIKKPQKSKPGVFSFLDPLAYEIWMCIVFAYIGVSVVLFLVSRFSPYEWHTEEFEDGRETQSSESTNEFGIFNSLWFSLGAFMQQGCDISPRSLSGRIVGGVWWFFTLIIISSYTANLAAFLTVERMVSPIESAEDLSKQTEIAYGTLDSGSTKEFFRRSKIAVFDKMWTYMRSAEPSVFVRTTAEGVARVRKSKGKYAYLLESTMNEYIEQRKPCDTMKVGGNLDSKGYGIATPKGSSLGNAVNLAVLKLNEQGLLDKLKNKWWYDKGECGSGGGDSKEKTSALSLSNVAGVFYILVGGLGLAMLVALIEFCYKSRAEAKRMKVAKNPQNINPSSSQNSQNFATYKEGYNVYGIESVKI
UniProt Q9QZ81: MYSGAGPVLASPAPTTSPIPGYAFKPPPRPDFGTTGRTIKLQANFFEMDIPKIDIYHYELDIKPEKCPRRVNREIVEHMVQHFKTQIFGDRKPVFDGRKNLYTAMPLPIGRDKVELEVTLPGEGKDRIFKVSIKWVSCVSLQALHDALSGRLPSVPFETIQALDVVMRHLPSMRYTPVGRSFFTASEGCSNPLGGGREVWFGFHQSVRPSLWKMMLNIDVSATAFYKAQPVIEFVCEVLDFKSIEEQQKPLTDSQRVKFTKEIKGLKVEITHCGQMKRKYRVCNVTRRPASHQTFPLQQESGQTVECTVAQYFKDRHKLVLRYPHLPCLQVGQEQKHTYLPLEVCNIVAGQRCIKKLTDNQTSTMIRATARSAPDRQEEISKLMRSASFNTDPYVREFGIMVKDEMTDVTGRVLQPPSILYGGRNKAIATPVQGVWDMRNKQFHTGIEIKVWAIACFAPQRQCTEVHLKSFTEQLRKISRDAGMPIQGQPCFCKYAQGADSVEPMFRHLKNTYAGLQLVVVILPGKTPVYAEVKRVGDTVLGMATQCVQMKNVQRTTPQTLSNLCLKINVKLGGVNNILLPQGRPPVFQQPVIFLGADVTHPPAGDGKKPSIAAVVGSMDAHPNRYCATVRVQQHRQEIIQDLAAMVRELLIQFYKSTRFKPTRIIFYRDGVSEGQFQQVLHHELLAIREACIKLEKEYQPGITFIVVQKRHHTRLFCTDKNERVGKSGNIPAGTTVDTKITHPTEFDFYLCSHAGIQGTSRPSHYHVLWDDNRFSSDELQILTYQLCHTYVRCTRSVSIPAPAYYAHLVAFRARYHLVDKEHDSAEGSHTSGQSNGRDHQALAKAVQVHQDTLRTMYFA
UniProt Q9UKV8: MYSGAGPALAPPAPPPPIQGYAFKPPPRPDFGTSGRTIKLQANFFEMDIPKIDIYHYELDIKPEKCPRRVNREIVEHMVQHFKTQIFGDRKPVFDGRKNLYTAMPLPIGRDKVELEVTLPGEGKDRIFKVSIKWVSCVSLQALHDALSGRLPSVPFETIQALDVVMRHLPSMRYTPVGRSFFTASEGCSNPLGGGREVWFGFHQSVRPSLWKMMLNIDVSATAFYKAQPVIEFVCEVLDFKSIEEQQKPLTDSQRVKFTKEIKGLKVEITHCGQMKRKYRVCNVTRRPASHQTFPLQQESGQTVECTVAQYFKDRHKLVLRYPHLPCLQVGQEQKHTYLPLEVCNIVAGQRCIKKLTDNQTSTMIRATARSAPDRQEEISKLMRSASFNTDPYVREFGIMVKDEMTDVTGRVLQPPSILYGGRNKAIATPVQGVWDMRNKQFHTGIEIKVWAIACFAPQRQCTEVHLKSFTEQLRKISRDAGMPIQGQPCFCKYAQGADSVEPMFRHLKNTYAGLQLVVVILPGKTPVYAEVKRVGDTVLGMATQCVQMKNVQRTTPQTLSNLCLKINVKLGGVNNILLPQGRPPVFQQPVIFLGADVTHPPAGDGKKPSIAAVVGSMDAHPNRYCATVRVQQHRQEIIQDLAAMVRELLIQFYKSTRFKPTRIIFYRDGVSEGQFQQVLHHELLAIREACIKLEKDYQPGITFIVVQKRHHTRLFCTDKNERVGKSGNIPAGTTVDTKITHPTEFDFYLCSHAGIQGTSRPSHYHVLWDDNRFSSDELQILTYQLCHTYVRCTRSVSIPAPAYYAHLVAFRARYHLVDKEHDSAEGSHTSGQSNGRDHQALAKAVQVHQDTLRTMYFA

Tests used:
FLAG-PICK1 K27A,D28A = FLAG-PICK1 K27A,D28A (UniProt Q9EP80); assay: co-IP; anti-FLAG immunoprecipitation from transfected HEK293 cell extracts in IP buffer (0.5% Triton X-100, 150 mM NaCl, 20 mM HEPES pH 7.4), 4 °C; Western blot
FLAG-PICK1 WT = FLAG-PICK1 WT (UniProt Q9EP80); assay: as above
His6-PICK1 = His6-PICK1 (UniProt Q9EP80); assay: pull-down; His6-PICK1 immobilised on nickel beads, incubated 1 h at 4 °C with extract of HEK293 cells co-expressing GFP-Ago2 and Myc-GluA2 in co-IP buffer with defined [Ca2+]free of 0, 4, 8 and 16 μM; Western blot; only the target purified
GFP-PICK1 WT = GFP-PICK1 WT (UniProt Q9EP80); assay: co-IP; GFP-trap beads capture GFP-PICK1 from lysate of transfected cortical neurons (10 mM Tris pH 7.5, 150 mM NaCl, 0.5 mM EDTA, 0.5% Nonidet P-40), 1 h at 4 °C; basal and 10 min after NMDA-induced cLTD; Western blot
[1] = target: endogenous PICK1 (rat cortical neurons) (rat (endogenous in cortical neurons)) (UniProt Q9EP80); assay: co-IP; endogenous PICK1 immunoprecipitated (anti-PICK1, protein G-Sepharose) from DIV14 cortical neuron lysate in co-IP buffer with defined [Ca2+]free; 4 °C; Western blot
[2] = target: endogenous PICK1 (rat cortical neurons) (rat (endogenous in cortical neurons)) (UniProt Q9EP80); assay: co-IP; endogenous PICK1 immunoprecipitated from DIV14 cortical neuron lysate in IP buffer; neurons unstimulated or stimulated with NMDA (3 min) with 1.8 mM or without extracellular Ca2+, harvested 0, 5, 10 or 30 min later; Western blot
FLAG-PICK1 Δ380–390 = FLAG-PICK1 Δ380–390 (UniProt Q9EP80); assay: co-IP; anti-FLAG immunoprecipitation from transfected HEK293 cell extracts in IP buffer (0.5% Triton X-100, 150 mM NaCl, 20 mM HEPES pH 7.4), 4 °C; Western blot

Row | Substance | binding (FLAG-PICK1 K27A,D28A) | binding (FLAG-PICK1 WT) | binding (His6-PICK1) | binding (GFP-PICK1 WT) | binding [1] | binding [2] | binding (FLAG-PICK1 Δ380–390)
1 | Myc-GluA2 (from UniProt P19491 22-883) (receptor) | no binding | binds | binds |  |  |  | 
2 | endogenous GluA2 (rat cortical neurons) (from UniProt P19491 22-883) (receptor) |  |  |  | binds | binds |  | 
3 | endogenous Ago2 (rat cortical neurons) (from UniProt Q9QZ81 1-860) |  |  |  | binds | binds | binds | 
4 | GFP-Ago2 (from UniProt Q9UKV8 1-859) | binds | binds | binds |  |  |  | 
5 | Myc-Ago2 (from UniProt Q9UKV8 1-859) |  | binds |  |  |  |  | binds
